Experimental data taken from article PMC12568528.
Results are given in words; binding and its absence hold for the method and conditions named. Binding seen in cells or lysates may run through a third protein. Some results given as binding are weak or reduced against the parent protein; the word gives no strength.

Sequences of proteins named here, by UniProt entry; tags and fusion partners are left off.
UniProt P08699: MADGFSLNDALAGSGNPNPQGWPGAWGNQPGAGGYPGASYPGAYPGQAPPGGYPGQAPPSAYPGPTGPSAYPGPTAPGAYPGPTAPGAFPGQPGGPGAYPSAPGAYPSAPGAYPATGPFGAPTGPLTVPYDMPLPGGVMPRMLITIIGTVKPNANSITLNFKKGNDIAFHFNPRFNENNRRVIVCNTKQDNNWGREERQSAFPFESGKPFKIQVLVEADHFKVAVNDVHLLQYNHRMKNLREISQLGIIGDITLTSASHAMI
UniProt Q8CFN2: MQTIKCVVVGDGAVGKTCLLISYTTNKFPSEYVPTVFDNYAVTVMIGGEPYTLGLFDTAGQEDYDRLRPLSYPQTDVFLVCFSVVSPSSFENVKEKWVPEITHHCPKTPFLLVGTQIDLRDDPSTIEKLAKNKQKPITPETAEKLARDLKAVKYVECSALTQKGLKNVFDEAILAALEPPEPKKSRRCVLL

Molecular target: Galectin-3 (rat (endogenous in primary spinal cord neurons)) (UniProt P08699)
Assay: co-IP; whole cell lysate of glutamate-injured rat spinal cord neurons, pre-absorbed with protein A + G agarose beads, incubated overnight at 4°C with the designated antibodies; Western blot; which protein was precipitated is not told

In the case of “Cell-division-cycle-42 (from UniProt Q8CFN2 1-191)”, the binding is reported as “binds”.
